± gives the standard deviation of the averaged measurements. Most values lie at the level of the controls, where differences are scatter.
Key:
Experiment in all cases: level (log10 ratio to DMSO vehicle control); higher = higher biomarker level / cell amount than vehicle control
[1] = compound: COC(=O)CCC(F)(F)C(F)(F)C(F)(F)C(F)(F)F [Methyl 2H,2H,3H,3H-perfluoroheptanoate]; settings: 2200 nM; in DMSO
Description: (§1)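 BioMAP Diversity Plus panel of 12 human primary cell co-culture systems (3C, 4H, LPS, SAg, BT, BF4T, BE3C, CASM3C, HDF3CGF, KF3CT, MyoF, Mphg). Compounds were added 1 h before stimulation and left for 24 h (MyoF 48 h; BT 72 h for soluble read-outs or 6 d for IgG). Biomarkers were read by ELISA, cytotoxicity by SRB, PBMC viability and proliferation by Alamar Blue. Each well value was divided by the mean of 8 DMSO control wells on the same plate and log10 transformed; duplicate blinded samples were tested at 4 concentrations.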

Tetrafluorosuccinic acid = compound: O=C(O)C(F)(F)C(F)(F)C(=O)O [Tetrafluorosuccinic acid]; settings: 2200 nM; in DMSO
Description: as §1

[2] = compound: O=S(=O)(O)C(F)(F)C(F)(F)OC(F)(F)C(F)(F)F [Perfluoro(2-ethoxyethane)sulfonic acid]; settings: 2200 nM; in DMSO
Description: as §1

[3] = compound: C=C(C)C(=O)OCCC(F)(F)C(F)(F)C(F)(F)C(F)(F)C(F)(C(F)(F)F)C(F)(F)F [(Perfluoro-5-methylhexyl)ethyl 2-methylprop-2-enoate]; settings: in DMSO
Description: as §1

Perfluoropinacol = compound: OC(C(F)(F)F)(C(F)(F)F)C(O)(C(F)(F)F)C(F)(F)F [Perfluoropinacol]; settings: in DMSO
Description: as §1

Nonafluoropentanamide = compound: NC(=O)C(F)(F)C(F)(F)C(F)(F)C(F)(F)F [Nonafluoropentanamide]; settings: 2200 nM; in DMSO
Description: as §1

[4] = compound: O=C(O)CCC(F)(F)C(F)(F)C(F)(F)C(F)(F)C(F)(F)F [2H,2H,3H,3H-Perfluorooctanoic acid]; settings: 2200 nM; in DMSO
Description: as §1

[5] = compound: OCCC(F)(F)C(F)(F)C(F)(F)C(F)(F)F [4:2 Fluorotelomer alcohol]; settings: 2200 nM; in DMSO
Description: as §1

[6] = compound: NS(=O)(=O)C(F)(F)C(F)(F)C(F)(F)C(F)(F)C(F)(F)C(F)(F)F [Perfluorohexanesulfonamide]; settings: 2200 nM; in DMSO
Description: as §1

[7] = compound: O=C(O)C(F)(F)C(F)(F)C(F)(F)C(F)(F)C(F)(F)C(F)(F)C(F)(F)C(F)(F)Cl [9-Chloro-perfluorononanoic acid]; settings: in DMSO
Description: as §1

[8] = compound: O=S(=O)(O)CCC(F)(F)C(F)(F)C(F)(F)C(F)(F)C(F)(F)C(F)(F)F [6:2 Fluorotelomer sulfonic acid]; settings: in DMSO
Description: as §1

[9] = compound: C=C(C)C(=O)OCCC(F)(F)C(F)(F)C(F)(F)C(F)(F)C(F)(F)C(F)(F)C(F)(F)C(F)(F)F [8:2 Fluorotelomer methacrylate]; settings: in DMSO
Description: as §1

Octafluoroadipamide = compound: NC(=O)C(F)(F)C(F)(F)C(F)(F)C(F)(F)C(N)=O [Octafluoroadipamide]; settings: 2200 nM; in DMSO
Description: as §1

[10] = compound: FC(F)(F)C(F)(F)C(F)(F)C(F)(F)C(F)(F)CCI [1-Iodo-1H,1H,2H,2H-perfluoroheptane]; settings: 2200 nM; in DMSO
Description: as §1

Row | Test System | level (log10) [1] | level (log10) (Tetrafluorosuccinic acid) | level (log10) [2] | level (log10) ([3]; 740 nM) | level (log10) ([3]; 2200 nM) | level (log10) ([3]; 6700 nM) | level (log10) ([3]; 20000 nM) | level (log10) (Perfluoropinacol; 2200 nM) | level (log10) (Perfluoropinacol; 6700 nM) | level (log10) (Perfluoropinacol; 20000 nM) | level (log10) (Nonafluoropentanamide) | level (log10) [4] | level (log10) [5] | level (log10) [6] | level (log10) ([7]; 2200 nM) | level (log10) ([7]; 6700 nM) | level (log10) ([7]; 20000 nM) | level (log10) ([8]; 2200 nM) | level (log10) ([8]; 6700 nM) | level (log10) ([8]; 20000 nM) | level (log10) ([8]; 60000 nM) | level (log10) ([9]; 740 nM) | level (log10) ([9]; 2200 nM) | level (log10) (Octafluoroadipamide) | level (log10) [10]
1 | 3C:CD62E/E-Selectin | -0.014 ± 0.0071 | -0.011 ± 0.034 | 0.019 ± 0.031 | -0.003 | 0.0015 ± 0.0021 | -0.0095 ± 0.018 | -0.0175 ± 0.0021 | -0.009 ± 0.018 | -0.007 ± 0.013 | -0.0605 ± 0.03 | -0.022 ± 0.041 | -0.0055 ± 0.025 | -0.0075 ± 0.0021 | -0.0005 ± 0.029 | 0.015 ± 0.018 | -0.005 ± 0.0057 | 0.001 ± 0.017 | -0.013 ± 0.021 | -0.021 ± 0.034 | 0.003 ± 0.048 | 0.026 ± 0.038 | -0.008 ± 0.0071 | -0.0165 ± 0.00071 | -0.0085 ± 0.028 | 0.015 ± 0.02
2 | lMphg:M-CSF | 0.0185 ± 0.032 | -0.0045 ± 0.023 | -0.002 ± 0.0028 | 0.0235 ± 0.012 | 0.0115 ± 0.005 | -0.005 ± 0.042 | 0.015 ± 0.042 | -0.0075 ± 0.037 | -0.0155 ± 0.04 | -0.0825 ± 0.013 | 0.027 ± 0.0042 | -0.028 ± 0.027 | -0.02 ± 0.037 | -0.0415 ± 0.011 | 0 ± 0.023 | -0.0055 ± 0.0021 | -0.0045 ± 0.0021 | -0.0075 ± 0.028 | 0.0045 ± 0.0078 | -0.023 ± 0.028 | -0.0145 ± 0.0064 | 0.01 ± 0.048 | -0.003 ± 0.013 | 0.002 ± 0.031 | -0.0235 ± 0.0092
3 | LPS:CD106/VCAM-1 | -0.016 ± 0.027 | -0.0105 ± 0.0064 | 0.0275 ± 0.04 | 0.0025 ± 0.035 | 0.0305 ± 0.026 | 0.0045 ± 0.016 | -0.003 ± 0.035 | 0.0085 ± 0.021 | 0.0045 ± 0.013 | -0.0825 ± 0.015 | -0.0095 ± 0.0064 | 0.016 ± 0.017 | -0.015 ± 0.0085 | -0.0345 ± 0.04 | -0.002 ± 0.052 | -0.008 ± 0.045 | 0.003 ± 0.037 | 0.0115 ± 0.073 | -0.0055 ± 0.067 | -0.0005 ± 0.074 | 0.0115 ± 0.042 | 0.001 ± 0.031 | -0.012 ± 0.02 | -0.0165 ± 0.013 | -0.0005 ± 0.0092
4 | CASM3C:CD141/Thrombomodulin | -0.036 ± 0.0071 | -0.0375 ± 0.0092 | 0.0205 ± 0.015 | -0.0165 ± 0.046 | -0.0525 ± 0.066 | -0.0185 ± 0.069 | 0.0165 ± 0.098 | 0.012 ± 0.052 | -0.0085 ± 0.021 | 0.0575 ± 0.0035 | 0.0125 ± 0.015 | -0.006 ± 0.072 | 0.0295 ± 0.039 | -0.0465 ± 0.032 | 0.012 ± 0.017 | -0.0175 ± 0.022 | -0.0225 ± 0.025 | 0.0155 ± 0.067 | -0.015 ± 0.037 | -0.0175 ± 0.063 | -0.033 ± 0.021 | 0.015 ± 0.0071 | -0.0265 ± 0.032 | -0.0045 ± 0.036 | 0.012 ± 0.025
5 | SAg:SRB | 0.012 ± 0.018 | -0.003 ± 0.0014 | 0.004 ± 0.0028 | 0.005 ± 0.016 | -0.0005 ± 0.0035 | -0.001 ± 0.0042 | -0.0105 ± 0.0078 | -0.0065 ± 0.011 | -0.0285 ± 0.0078 | -0.123 ± 0.0021 | 0.0005 ± 0.019 | -0.0005 ± 0.03 | -0.0075 ± 0.0021 | -0.003 ± 0.0028 | 0.011 ± 0.0042 | -0.003 ± 0.0099 | -0.0105 ± 0.005 | 0.009 ± 0.021 | -0.012 ± 0.0057 | -0.0045 ± 0.0021 | -0.0045 ± 0.021 | 0.0095 ± 0.0064 | -0.0065 ± 0.0092 | -0.006 ± 0.0057 | 0.0015 ± 0.012
6 | KF3CT:SRB | -0.0135 ± 0.005 | -0.001 ± 0.016 | 0.0025 ± 0.0078 | 0.005 ± 0.0057 | 0.002 ± 0.0014 | -0.006 ± 0.0014 | 0.003 ± 0.016 | 0.0105 ± 0.011 | -0.004 ± 0.0042 | -0.014 ± 0.02 | 0.0035 ± 0.0092 | -0.0035 ± 0.005 | 0.0025 ± 0.00071 | 0.0095 ± 0.016 | -0.0005 ± 0.005 | -0.0135 ± 0.0035 | -0.0145 ± 0.012 | -0.0015 ± 0.00071 | -0.004 | 0.0005 ± 0.0035 | 0.006 ± 0.016 | 0.0025 ± 0.0035 | 0.0005 ± 0.0035 | 0.0115 ± 0.026 | 0.0065 ± 0.011
7 | BT:sIL-17F | 0.0315 ± 0.026 | -0.048 ± 0.014 | 0.0025 ± 0.066 | -0.081 ± 0.18 | 0.004 ± 0.0042 | 0.004 ± 0.15 | -0.0015 ± 0.0092 | -0.0755 ± 0.1 | -0.063 ± 0.028 | -0.23 ± 0.033 | 0.0135 ± 0.12 | 0 ± 0.064 | 0.052 ± 0.14 | -0.021 ± 0.079 | -0.034 ± 0.062 | -0.0055 ± 0.074 | 0.011 ± 0.024 | 0 ± 0.023 | 0.0005 ± 0.064 | 0.0725 ± 0.012 | 0.0155 ± 0.011 | -0.0095 ± 0.037 | 0.089 ± 0.057 | 0.0715 ± 0.16 | -0.0285 ± 0.12
8 | BT:Secreted IgG | 0.0465 ± 0.0021 | -0.003 ± 0.031 | 0.0245 ± 0.032 | -0.026 ± 0.034 | -0.019 ± 0.0042 | -0.0085 ± 0.044 | -0.023 ± 0.0085 | 0.0105 ± 0.0078 | -0.322 ± 0.02 | -1.36 | 0.0055 ± 0.022 | 0.0575 ± 0.022 | 0.024 ± 0.014 | -0.024 ± 0.016 | -0.0055 ± 0.054 | 0.0065 ± 0.06 | 0.0175 ± 0.011 | 0.0065 ± 0.0092 | 0.0005 ± 0.054 | -0.048 ± 0.031 | -0.081 ± 0.048 | -0.0025 ± 0.019 | 0.0015 ± 0.018 | 0.023 ± 0.037 | -0.001 ± 0.031
9 | BF4T:MMP-3 | -0.0115 ± 0.042 | 0.0195 ± 0.03 | 0.0235 ± 0.029 | -0.093 | -0.046 ± 0.0085 | -0.0975 ± 0.022 | -0.057 ± 0.041 | -0.008 ± 0.051 | -0.013 ± 0.04 | -0.008 ± 0.0057 | -0.028 ± 0.0099 | 0.024 ± 0.0071 | 0.0185 ± 0.036 | -0.014 ± 0.035 | 0.0075 ± 0.049 | 0.0535 ± 0.023 | 0.118 ± 0.035 | 0.035 ± 0.085 | -0.0095 ± 0.074 | -0.0015 ± 0.0035 | 0.0515 ± 0.025 | 0.0185 ± 0.019 | 0.014 ± 0.011 | -0.007 ± 0.024 | -0.017 ± 0.02
10 | KF3CT:CXCL9/MIG | 0.001 ± 0.014 | -0.004 ± 0.016 | 0.0085 ± 0.016 | 0.0145 ± 0.013 | 0.0095 ± 0.022 | 0.018 ± 0.014 | 0.0215 ± 0.023 | 0.004 ± 0.018 | 0.002 ± 0.0028 | -0.004 ± 0.0071 | 0.0165 ± 0.0078 | -0.0075 ± 0.016 | -0.0105 ± 0.011 | -0.0025 ± 0.0092 | -0.007 ± 0.014 | 0.0025 ± 0.0092 | -0.0015 ± 0.0021 | -0.005 ± 0.0085 | 0.0005 ± 0.013 | -0.0025 ± 0.022 | 0.0005 ± 0.013 | 0.003 ± 0.0071 | -0.0045 ± 0.0092 | 0.008 ± 0.023 | 0.0085 ± 0.0064

Shown as tab-separated lines: entries from further up.
Row	Test System	level (log10) [1]	level (log10) (Tetrafluorosuccinic acid)	level (log10) [2]	level (log10) ([3]; 740 nM)	level (log10) ([3]; 2200 nM)	level (log10) ([3]; 6700 nM)	level (log10) ([3]; 20000 nM)	level (log10) (Perfluoropinacol; 2200 nM)	level (log10) (Perfluoropinacol; 6700 nM)	level (log10) (Perfluoropinacol; 20000 nM)	level (log10) (Nonafluoropentanamide)	level (log10) [4]	level (log10) [5]	level (log10) [6]	level (log10) ([7]; 2200 nM)	level (log10) ([7]; 6700 nM)	level (log10) ([7]; 20000 nM)	level (log10) ([8]; 2200 nM)	level (log10) ([8]; 6700 nM)	level (log10) ([8]; 20000 nM)	level (log10) ([8]; 60000 nM)	level (log10) ([9]; 740 nM)	level (log10) ([9]; 2200 nM)	level (log10) (Octafluoroadipamide)	level (log10) [10]
7	BT:sIL-17F	0.0315 ± 0.026	-0.048 ± 0.014	0.0025 ± 0.066	-0.081 ± 0.18	0.004 ± 0.0042	0.004 ± 0.15	-0.0015 ± 0.0092	-0.0755 ± 0.1	-0.063 ± 0.028	-0.23 ± 0.033	0.0135 ± 0.12	0 ± 0.064	0.052 ± 0.14	-0.021 ± 0.079	-0.034 ± 0.062	-0.0055 ± 0.074	0.011 ± 0.024	0 ± 0.023	0.0005 ± 0.064	0.0725 ± 0.012	0.0155 ± 0.011	-0.0095 ± 0.037	0.089 ± 0.057	0.0715 ± 0.16	-0.0285 ± 0.12
8	BT:Secreted IgG	0.0465 ± 0.0021	-0.003 ± 0.031	0.0245 ± 0.032	-0.026 ± 0.034	-0.019 ± 0.0042	-0.0085 ± 0.044	-0.023 ± 0.0085	0.0105 ± 0.0078	-0.322 ± 0.02	-1.36	0.0055 ± 0.022	0.0575 ± 0.022	0.024 ± 0.014	-0.024 ± 0.016	-0.0055 ± 0.054	0.0065 ± 0.06	0.0175 ± 0.011	0.0065 ± 0.0092	0.0005 ± 0.054	-0.048 ± 0.031	-0.081 ± 0.048	-0.0025 ± 0.019	0.0015 ± 0.018	0.023 ± 0.037	-0.001 ± 0.031

Source: the supplement of paper PMC10331698
